Results as given in doi:10.1101/368936.
Numbering of substitutions follows the chain as printed. No constants are given. Whether binding was seen depends on the method and setting. In cells and extracts the contact can be indirect. Some entries that bind do so weakly or less than the wild type.

Chains of the proteins cited; added tags and fusions are not shown. Residues count along the entry.
UniProt Q92547, residues 1-360: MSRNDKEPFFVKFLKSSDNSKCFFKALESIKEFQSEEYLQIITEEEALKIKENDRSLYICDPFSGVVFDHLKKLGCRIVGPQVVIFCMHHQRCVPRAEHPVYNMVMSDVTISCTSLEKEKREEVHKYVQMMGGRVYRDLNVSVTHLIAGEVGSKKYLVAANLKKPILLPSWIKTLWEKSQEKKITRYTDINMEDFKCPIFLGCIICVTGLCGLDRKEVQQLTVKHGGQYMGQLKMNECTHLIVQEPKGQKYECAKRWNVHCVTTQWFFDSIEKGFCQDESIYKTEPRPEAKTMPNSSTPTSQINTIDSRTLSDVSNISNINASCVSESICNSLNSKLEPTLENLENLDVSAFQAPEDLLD

How the values were obtained:
Test in all cases: pull-down
[1] = target: T1, Biotinylated HsRAD9 pS387 peptide Q-5 (human)
T1 sequence (peptide, phosphoserine at 387; biotin (position not stated)): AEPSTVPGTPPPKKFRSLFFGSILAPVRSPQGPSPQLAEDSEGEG

[2] = target: T2, Biotinylated HsRAD9 pS387 peptide I-4 (human)
T2 sequence (peptide, phosphoserine at 387; biotin (position not stated)): T1 sequence (peptide, phosphoserine at 387; biotin (position not stated)) with Q36V, L37I

[3] = target: T3, Biotinylated HsRAD9 pS387 peptide F-4 (human)
T3 sequence (peptide, phosphoserine at 387; biotin (position not stated)): T1 sequence (peptide, phosphoserine at 387; biotin (position not stated)) with Q36V, L37F

[4] = target: T4, Biotinylated HsRAD9 pS387 peptide V-3 (human)
T4 sequence (peptide, phosphoserine at 387; biotin (position not stated)): T1 sequence (peptide, phosphoserine at 387; biotin (position not stated)) with Q36V, A38V

[5] = target: T5, Biotinylated HsRAD9 peptide pS387 (347-391) (human)
T5 sequence (peptide, phosphoserine at 387; biotin (position not stated)): T1 sequence (peptide, phosphoserine at 387; biotin (position not stated)) with Q36V

[6] = target: T6, Biotinylated HsRAD9 pS387 peptide S-5 (human)
T6 sequence (peptide, phosphoserine at 387; biotin (position not stated)): T1 sequence (peptide, phosphoserine at 387; biotin (position not stated)) with Q36S

Measured: binding

N-Myc6-TEV2-hTOPBP1-1-360 (from UniProt Q92547 1-360) (domain or fragment)
binds: all assays above
